Among the data in the supplement of paper PMC10735217 are TEAD-luciferase reporter activity values, retold here.

This is one part of the list. This data set is noisy: repeats of one test often differ as much as different tests do.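 The human kidney-derived cells carry a stably integrated construct of eight TEAD-binding elements driving luciferase, read by luminescence in a drug-repurposing library screen. A compound counts as a hit when its signal is more than five robust Z scores above the plate mean.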

The assay has as its system HEK293A TEAD-LUC reporter. Kind of assay: TEAD-luciferase reporter activity (YAP activation), robust Z score vs plate; higher = stronger YAP/TEAD activation. As to conditions: 24 h. For orientation: Reporter assays use an easily measured gene product as a stand-in for the process of interest.

Consider `CCn1c(-c2nonc2N)nc2c(C#CC(C)(C)O)ncc(OC[C@H]3CCCNC3)c21`, for which the TEAD-luciferase reporter activity is, setting by setting: (compound concentration: 200 nM) inactive: -0.242; (compound concentration: 2 uM) active: 21; (compound concentration: 10 uM) active: 24.5.

Regarding `NC(=O)c1ccc([N+](=O)[O-])cc1Cl`, the TEAD-luciferase reporter activity was inactive: -0.661 (compound concentration: 200 nM) and inactive: -1.05 (compound concentration: 10 uM).

With `NC(=O)c1ccc([N+](=O)[O-])cc1Cl` [Aklomide], the TEAD-luciferase reporter activity (compound concentration: 2 uM) is inactive: -0.686.

Consider `O=C(CCc1ccccc1)NC[C@H]1CN(c2ccc(N3CCOCC3)c(F)c2)C(=O)O1`, for which the TEAD-luciferase reporter activity (compound concentration: 200 nM) was inactive: 0.0736, the TEAD-luciferase reporter activity (compound concentration: 2 uM) is inactive: -1.48 and the TEAD-luciferase reporter activity (compound concentration: 10 uM) is inactive: 1.92.

`CC1(C)C2CCC1(CS(=O)(=O)O)C(=O)/C2=C\c1ccc(/C=C2\C(=O)C3(CS(=O)(=O)O)CCC2C3(C)C)cc1` [Ecamsulum]: the TEAD-luciferase reporter activity by setting is: (compound concentration: 200 nM) inactive: -1.43; (compound concentration: 2 uM) inactive: -2.19; (compound concentration: 10 uM) active: 9.13.

With `Cc1oncc1C(=O)N1CCCCC1` [Nerbacadol], the TEAD-luciferase reporter activity by setting is: (compound concentration: 200 nM) inactive: -0.753; (compound concentration: 2 uM) inactive: 0.184; (compound concentration: 10 uM) inactive: 1.67.

In the case of `C=C1/C(=C/C=C2\CCC[C@]3(C)[C@@H]([C@H](C)/C=C/[C@@H](O)C4CC4)CC[C@@H]23)C[C@@H](O)C[C@@H]1O` [calcipotriol (ointment), novel formulation, Leo], the TEAD-luciferase reporter activity (compound concentration: 200 nM) is inactive: -1.5 and the TEAD-luciferase reporter activity (compound concentration: 10 uM) was inactive: 0.33.

Consider `C=C1/C(=C/C=C2\CCC[C@]3(C)[C@@H]([C@H](C)/C=C/[C@@H](O)C4CC4)CC[C@@H]23)C[C@@H](O)C[C@@H]1O` [calcipotriol (ointment), novel formulation], for which the TEAD-luciferase reporter activity (compound concentration: 2 uM) is inactive: 0.248.

As for `COc1ccnc(-c2cccc(C)c2S(=O)c2nc3ccccc3[nH]2)c1` (centres undefined), the TEAD-luciferase reporter activity by setting is: (compound concentration: 200 nM) inactive: -1.05; (compound concentration: 2 uM) inactive: -0.673; (compound concentration: 10 uM) inactive: 0.211.

For the compound `CC(=O)N(C)C1CCc2ccccc21` (centres undefined), the TEAD-luciferase reporter activity was inactive: 3.33 (compound concentration: 200 nM) and inactive: 0.894 (compound concentration: 10 uM).

With `COc1cccc(-c2ccc(CN3CCCC3C(=O)NCc3ccc(C(F)(F)F)cc3)cc2)c1` (centres undefined), the TEAD-luciferase reporter activity reads like this: (compound concentration: 200 nM) inactive: 2.49; (compound concentration: 10 uM) inactive: 0.89.

As to `CON=C(C(=O)NC1CN2CC(S(C)(=O)=O)=C(C(=O)O)N2C1=O)c1csc(N)n1` (centres undefined), the TEAD-luciferase reporter activity was inactive: -0.367 (compound concentration: 200 nM) and inactive: 1.58 (compound concentration: 10 uM).

Turning to `C/C(=C\C(=O)c1ccccc1)N[C@@H](Cc1ccc(OCCc2nc(-c3ccccc3)oc2C)cc1)C(=O)[O-]`, the TEAD-luciferase reporter activity by setting is: (compound concentration: 200 nM) inactive: 0.29; (compound concentration: 2 uM) inactive: 0.229; (compound concentration: 10 uM) inactive: 0.329.

On to `CCCN1CCCCC12Cc1ccccc1CN(C(=O)C1CCN(C)CC1)C2` (centres undefined), for which the TEAD-luciferase reporter activity reads like this: (compound concentration: 200 nM) inactive: -1.08; (compound concentration: 10 uM) inactive: -0.815.

Regarding `CCCCC1C(=O)N(c2ccccc2)N(c2ccccc2)C1=O` [Phenylbutazone], the TEAD-luciferase reporter activity by setting is: (compound concentration: 200 nM) inactive: -0.734; (compound concentration: 2 uM) inactive: 0.0751; (compound concentration: 10 uM) inactive: -1.12.

In the case of `C=CC1CNCCC1CCCc1ccnc2ccc(OC)cc12` (centres undefined) [Viqualine], the TEAD-luciferase reporter activity is inactive: -0.824 (compound concentration: 200 nM), inactive: -0.891 (compound concentration: 2 uM) and inactive: -0.877 (compound concentration: 10 uM).

On to `CCCCc1nc(Cl)c(C(=O)O)n1Cc1ccc2oc(-c3ccccc3-c3nnn[nH]3)c(Br)c2c1`, for which the TEAD-luciferase reporter activity runs as follows: (compound concentration: 200 nM) inactive: -1.23; (compound concentration: 2 uM) inactive: -1.28; (compound concentration: 10 uM) inactive: -1.27.

On to `COc1cc(C)c(S(C)=O)cc1OC` (centres undefined) [Tolmesoxide], for which the TEAD-luciferase reporter activity runs as follows: (compound concentration: 200 nM) inactive: -0.383; (compound concentration: 2 uM) inactive: 0.903; (compound concentration: 10 uM) inactive: -0.175.

Regarding `COC(=O)N1CCC(N2CC3CCCN3C2=O)CC1` (centres undefined), the TEAD-luciferase reporter activity is inactive: -1.04 (compound concentration: 200 nM) and inactive: -0.54 (compound concentration: 10 uM).

With `CN1C(C(=O)Nc2ccccn2)=C(O)c2sc(Cl)cc2S1(=O)=O` [Lornoxicam (Xefo)], the TEAD-luciferase reporter activity is inactive: -1.66 (compound concentration: 200 nM), inactive: 1.81 (compound concentration: 2 uM) and inactive: 0.665 (compound concentration: 10 uM).

In the case of `CCCC(=O)c1cnc2c(OCCO)cccc2c1Nc1ccccc1C`, the TEAD-luciferase reporter activity reads like this: (compound concentration: 200 nM) inactive: 1.83; (compound concentration: 2 uM) inactive: -0.609; (compound concentration: 10 uM) inactive: 0.166.

Take `COc1cc(C(=O)N2CCOCC2)cc(OC)c1OC`: the TEAD-luciferase reporter activity (compound concentration: 200 nM) is inactive: -1.78, the TEAD-luciferase reporter activity (compound concentration: 2 uM) was inactive: -1.48 and the TEAD-luciferase reporter activity (compound concentration: 10 uM) was inactive: -0.0416.

As for `COc1cccc(-c2cc(=O)c3ccccc3o2)c1N`, the TEAD-luciferase reporter activity was active: 9.37 (compound concentration: 200 nM), inactive: 1.89 (compound concentration: 2 uM) and inactive: 1.91 (compound concentration: 10 uM).

As for `CC1=CCC(C(C)(C)O)CC1` (centres undefined), the TEAD-luciferase reporter activity runs as follows: (compound concentration: 200 nM) inactive: -0.645; (compound concentration: 2 uM) inactive: -1.47; (compound concentration: 10 uM) inactive: -0.875.

With `CC(C)[C@@H](CC[C@@H](C)[C@H]1CC[C@H]2[C@@H]3[C@H](O)C[C@H]4C[C@@H](NCCCNCCCCN)CC[C@]4(C)[C@H]3CC[C@]12C)OS(=O)(=O)O`, the TEAD-luciferase reporter activity (compound concentration: 200 nM) is inactive: 1.24, the TEAD-luciferase reporter activity (compound concentration: 2 uM) is inactive: 0.173 and the TEAD-luciferase reporter activity (compound concentration: 10 uM) was inactive: -1.
